According to the supplement of paper PMC10849652:
The list shows a part of the results.

Sequences of proteins named here, by UniProt entry; tags and fusion partners are left off. A change or cut given only in a name is not applied to a line headed by its entry.
UniProt O95989: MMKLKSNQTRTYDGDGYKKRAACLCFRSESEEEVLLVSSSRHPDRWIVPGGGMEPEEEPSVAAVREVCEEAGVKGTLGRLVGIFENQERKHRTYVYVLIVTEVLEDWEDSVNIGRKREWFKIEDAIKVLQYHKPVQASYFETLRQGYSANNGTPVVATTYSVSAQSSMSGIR
UniProt Q96P11: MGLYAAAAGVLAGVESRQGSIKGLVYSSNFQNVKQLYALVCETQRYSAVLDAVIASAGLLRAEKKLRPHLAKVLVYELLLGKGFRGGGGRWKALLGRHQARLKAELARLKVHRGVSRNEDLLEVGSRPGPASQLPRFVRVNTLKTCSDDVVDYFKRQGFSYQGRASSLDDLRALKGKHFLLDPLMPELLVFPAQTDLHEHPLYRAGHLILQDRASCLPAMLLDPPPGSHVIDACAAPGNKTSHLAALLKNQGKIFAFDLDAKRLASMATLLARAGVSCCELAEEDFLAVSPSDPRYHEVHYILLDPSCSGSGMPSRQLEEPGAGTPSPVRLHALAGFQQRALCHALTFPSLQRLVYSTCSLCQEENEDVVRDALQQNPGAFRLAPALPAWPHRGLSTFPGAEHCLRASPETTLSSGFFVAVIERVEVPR
UniProt P40261: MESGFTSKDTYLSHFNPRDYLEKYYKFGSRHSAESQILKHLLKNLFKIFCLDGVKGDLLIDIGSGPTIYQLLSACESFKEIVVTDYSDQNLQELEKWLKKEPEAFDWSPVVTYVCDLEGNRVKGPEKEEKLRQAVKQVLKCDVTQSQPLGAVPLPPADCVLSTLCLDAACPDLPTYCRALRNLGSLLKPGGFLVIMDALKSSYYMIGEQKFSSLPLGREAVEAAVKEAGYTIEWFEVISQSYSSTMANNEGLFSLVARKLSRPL
UniProt Q9HBL8: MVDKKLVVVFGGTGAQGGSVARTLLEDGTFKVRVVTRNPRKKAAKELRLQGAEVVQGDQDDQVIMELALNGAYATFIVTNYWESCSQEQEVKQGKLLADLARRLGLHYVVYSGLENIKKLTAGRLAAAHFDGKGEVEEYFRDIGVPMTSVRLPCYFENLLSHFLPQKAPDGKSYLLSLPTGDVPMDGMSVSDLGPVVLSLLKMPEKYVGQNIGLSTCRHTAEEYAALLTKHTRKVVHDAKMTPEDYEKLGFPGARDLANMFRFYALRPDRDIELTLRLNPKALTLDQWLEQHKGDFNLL
UniProt O60936: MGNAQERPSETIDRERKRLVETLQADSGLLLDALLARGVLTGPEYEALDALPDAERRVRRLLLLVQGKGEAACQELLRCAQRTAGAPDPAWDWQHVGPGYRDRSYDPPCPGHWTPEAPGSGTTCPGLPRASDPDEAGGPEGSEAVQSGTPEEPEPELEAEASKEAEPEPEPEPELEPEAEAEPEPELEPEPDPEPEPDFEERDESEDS
UniProt Q5SY16: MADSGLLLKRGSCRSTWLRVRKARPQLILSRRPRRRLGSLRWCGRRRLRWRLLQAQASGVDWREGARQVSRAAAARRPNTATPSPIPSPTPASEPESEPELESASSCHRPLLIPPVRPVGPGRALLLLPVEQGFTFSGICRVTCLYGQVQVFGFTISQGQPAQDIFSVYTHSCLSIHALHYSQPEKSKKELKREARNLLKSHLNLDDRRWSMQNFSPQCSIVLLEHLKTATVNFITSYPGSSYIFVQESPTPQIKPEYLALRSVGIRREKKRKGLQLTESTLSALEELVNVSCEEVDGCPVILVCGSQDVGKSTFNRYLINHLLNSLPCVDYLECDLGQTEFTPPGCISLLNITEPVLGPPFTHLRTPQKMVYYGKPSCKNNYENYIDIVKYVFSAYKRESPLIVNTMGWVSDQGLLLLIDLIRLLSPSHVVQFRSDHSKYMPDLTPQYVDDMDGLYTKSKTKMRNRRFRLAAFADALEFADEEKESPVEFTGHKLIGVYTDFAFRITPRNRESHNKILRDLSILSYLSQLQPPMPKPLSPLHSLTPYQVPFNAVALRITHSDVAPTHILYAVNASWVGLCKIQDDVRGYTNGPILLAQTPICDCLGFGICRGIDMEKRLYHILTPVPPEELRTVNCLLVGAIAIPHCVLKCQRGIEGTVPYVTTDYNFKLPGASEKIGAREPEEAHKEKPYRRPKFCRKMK
UniProt Q5TFE4: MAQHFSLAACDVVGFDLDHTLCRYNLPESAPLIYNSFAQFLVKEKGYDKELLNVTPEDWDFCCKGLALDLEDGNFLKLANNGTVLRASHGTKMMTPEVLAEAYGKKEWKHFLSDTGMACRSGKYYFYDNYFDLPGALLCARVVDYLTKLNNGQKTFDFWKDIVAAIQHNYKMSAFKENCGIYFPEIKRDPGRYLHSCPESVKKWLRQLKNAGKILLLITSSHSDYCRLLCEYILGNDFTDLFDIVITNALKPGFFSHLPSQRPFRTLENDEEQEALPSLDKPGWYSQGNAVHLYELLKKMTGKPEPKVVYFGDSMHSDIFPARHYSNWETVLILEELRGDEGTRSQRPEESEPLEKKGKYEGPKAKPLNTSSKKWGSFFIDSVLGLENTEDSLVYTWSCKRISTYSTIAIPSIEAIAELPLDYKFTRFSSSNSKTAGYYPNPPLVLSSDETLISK
UniProt Q9Y2X3: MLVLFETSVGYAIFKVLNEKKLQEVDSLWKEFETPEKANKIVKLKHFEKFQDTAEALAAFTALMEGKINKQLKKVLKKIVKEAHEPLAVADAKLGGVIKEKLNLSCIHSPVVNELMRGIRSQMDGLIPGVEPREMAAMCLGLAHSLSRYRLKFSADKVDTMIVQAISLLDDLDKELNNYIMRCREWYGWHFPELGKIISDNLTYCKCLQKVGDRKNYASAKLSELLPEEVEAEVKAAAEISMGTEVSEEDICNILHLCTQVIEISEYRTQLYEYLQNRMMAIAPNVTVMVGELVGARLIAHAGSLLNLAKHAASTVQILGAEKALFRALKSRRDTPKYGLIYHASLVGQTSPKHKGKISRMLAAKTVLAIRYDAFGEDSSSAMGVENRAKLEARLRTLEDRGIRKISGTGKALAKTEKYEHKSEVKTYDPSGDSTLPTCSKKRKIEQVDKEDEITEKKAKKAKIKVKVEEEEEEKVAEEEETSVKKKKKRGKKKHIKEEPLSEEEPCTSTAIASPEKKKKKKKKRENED
UniProt Q9UNZ2: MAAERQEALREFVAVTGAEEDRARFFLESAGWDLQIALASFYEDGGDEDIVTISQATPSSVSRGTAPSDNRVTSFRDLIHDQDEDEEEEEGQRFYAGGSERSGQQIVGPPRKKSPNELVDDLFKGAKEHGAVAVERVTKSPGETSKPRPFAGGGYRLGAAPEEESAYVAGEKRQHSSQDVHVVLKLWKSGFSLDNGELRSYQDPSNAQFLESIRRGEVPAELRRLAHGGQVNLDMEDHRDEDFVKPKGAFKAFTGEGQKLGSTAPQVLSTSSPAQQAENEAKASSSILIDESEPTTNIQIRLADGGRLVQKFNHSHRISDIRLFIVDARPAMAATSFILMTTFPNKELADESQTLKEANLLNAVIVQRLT
UniProt Q9HAN9, whole entry, looked up: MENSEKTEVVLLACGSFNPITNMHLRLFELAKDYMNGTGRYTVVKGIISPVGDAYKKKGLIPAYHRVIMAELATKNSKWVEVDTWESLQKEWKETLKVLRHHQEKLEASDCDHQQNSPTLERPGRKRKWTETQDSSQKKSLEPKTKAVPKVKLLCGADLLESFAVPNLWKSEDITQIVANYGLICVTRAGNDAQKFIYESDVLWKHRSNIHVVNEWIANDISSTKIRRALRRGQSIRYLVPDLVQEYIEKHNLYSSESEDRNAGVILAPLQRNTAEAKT
UniProt Q9Y639: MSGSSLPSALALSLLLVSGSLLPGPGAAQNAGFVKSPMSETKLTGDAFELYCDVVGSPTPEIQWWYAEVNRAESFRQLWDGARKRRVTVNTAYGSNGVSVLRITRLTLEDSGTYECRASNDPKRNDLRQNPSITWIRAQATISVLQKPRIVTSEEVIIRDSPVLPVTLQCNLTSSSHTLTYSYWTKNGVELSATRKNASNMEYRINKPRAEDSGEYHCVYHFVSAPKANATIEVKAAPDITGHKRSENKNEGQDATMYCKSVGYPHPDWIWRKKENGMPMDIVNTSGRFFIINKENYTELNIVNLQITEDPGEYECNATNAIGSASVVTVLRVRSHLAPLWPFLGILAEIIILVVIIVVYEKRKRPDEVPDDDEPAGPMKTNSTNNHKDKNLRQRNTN
UniProt P57740: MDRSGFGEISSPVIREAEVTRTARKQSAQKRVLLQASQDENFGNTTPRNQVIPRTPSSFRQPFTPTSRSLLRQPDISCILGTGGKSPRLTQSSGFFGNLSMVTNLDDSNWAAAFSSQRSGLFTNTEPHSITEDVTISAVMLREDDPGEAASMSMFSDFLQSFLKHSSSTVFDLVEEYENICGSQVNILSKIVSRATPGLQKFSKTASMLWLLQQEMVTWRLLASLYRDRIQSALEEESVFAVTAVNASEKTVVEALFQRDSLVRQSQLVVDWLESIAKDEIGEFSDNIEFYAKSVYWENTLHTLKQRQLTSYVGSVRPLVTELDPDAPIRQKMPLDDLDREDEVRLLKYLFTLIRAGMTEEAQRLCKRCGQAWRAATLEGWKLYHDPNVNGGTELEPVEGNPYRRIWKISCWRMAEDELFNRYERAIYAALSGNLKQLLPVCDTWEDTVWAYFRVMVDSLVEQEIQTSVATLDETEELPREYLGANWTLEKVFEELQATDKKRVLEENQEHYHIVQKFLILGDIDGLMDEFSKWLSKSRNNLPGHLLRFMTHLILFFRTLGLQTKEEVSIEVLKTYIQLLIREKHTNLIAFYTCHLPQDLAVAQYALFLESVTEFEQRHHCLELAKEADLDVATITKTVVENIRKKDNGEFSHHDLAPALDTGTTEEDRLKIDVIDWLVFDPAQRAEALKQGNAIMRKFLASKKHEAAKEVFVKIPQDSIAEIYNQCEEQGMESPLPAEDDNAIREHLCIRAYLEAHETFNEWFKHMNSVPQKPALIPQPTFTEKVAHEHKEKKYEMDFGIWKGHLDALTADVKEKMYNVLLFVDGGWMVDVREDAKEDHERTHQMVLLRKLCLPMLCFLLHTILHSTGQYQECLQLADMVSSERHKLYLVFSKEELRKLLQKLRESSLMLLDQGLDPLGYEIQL
UniProt Q5JPE7: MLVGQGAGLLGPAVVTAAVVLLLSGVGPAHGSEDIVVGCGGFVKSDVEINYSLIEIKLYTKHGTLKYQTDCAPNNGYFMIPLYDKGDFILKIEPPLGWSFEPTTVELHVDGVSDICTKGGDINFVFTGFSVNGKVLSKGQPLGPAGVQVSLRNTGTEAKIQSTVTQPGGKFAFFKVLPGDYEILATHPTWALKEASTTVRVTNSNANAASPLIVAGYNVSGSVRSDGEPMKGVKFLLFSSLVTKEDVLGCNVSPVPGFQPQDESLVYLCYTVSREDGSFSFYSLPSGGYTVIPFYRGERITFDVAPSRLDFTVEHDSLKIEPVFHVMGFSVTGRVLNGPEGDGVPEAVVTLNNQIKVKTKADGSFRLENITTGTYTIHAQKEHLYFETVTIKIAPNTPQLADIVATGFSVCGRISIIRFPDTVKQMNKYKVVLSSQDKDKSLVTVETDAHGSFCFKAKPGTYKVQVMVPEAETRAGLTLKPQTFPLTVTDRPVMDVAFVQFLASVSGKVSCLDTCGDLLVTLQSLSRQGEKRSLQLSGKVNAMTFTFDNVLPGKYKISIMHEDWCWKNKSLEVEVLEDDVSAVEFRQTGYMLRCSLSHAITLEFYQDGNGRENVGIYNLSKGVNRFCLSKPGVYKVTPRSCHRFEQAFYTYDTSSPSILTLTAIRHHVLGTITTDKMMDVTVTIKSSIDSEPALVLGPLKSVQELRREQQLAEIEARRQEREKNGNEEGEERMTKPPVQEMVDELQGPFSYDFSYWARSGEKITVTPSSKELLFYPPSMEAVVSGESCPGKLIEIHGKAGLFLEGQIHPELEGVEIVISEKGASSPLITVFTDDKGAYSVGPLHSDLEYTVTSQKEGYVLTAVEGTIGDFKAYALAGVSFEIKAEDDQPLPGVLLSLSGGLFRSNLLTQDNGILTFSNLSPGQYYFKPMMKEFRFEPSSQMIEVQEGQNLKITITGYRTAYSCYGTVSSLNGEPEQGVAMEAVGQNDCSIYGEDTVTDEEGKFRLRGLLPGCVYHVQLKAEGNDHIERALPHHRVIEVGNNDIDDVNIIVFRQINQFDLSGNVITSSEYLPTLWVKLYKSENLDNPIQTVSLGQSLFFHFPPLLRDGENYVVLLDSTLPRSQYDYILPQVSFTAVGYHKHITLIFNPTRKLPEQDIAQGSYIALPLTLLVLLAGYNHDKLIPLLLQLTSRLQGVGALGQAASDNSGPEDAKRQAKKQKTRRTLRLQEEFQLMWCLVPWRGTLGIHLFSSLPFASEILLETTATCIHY
UniProt Q9Y5Y2: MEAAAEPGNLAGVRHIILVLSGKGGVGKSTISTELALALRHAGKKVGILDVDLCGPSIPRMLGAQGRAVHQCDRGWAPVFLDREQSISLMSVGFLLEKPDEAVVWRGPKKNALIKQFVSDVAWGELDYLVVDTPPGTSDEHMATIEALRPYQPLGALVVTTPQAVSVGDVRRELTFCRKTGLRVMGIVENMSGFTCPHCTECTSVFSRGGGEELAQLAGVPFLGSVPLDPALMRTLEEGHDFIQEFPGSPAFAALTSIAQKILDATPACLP

Key:
Experiment in all cases: log2 fold change, soluble protein after heating vs DMSO (PISA); higher = thermal stabilisation; K562 lysate, 10 uM; active = over 0.2 and 3.5 SD of the protein, either way, in both replicates (recomputed)
nilotinib = compound: Cc1cn(-c2cc(NC(=O)c3ccc(C)c(Nc4nccc(-c5cccnc5)n4)c3)cc(C(F)(F)F)c2)cn1 [nilotinib]
Summary of the method: (§1)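 Values give the log-two fold change in thermal stability against solvent controls, from duplicates. Crude K562 extract at 1 mg/mL protein, made by dounce homogenisation in PBS pH 7.4 with 1 mM MgCl2, was treated with 10 μM compound for 30 min. After 3 min heating across 48°C-58°C, aliquots were pooled, adjusted to 0.5% NP-40 at 4°C and centrifuged at 21,000xg for 90 min. The supernatant was measured by TMTpro 16plex LC-MS/MS with channel sums equalised.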

[1] = compound: Cc1nc(Nc2n[nH]c3c2CN(C(=O)N[C@H](CN(C)C)c2ccccc2)C3(C)C)c2sccc2n1
Summary of the method: as §1

dasatinib = compound: Cc1nc(Nc2ncc(C(=O)Nc3c(C)cccc3Cl)s2)cc(N2CCN(CCO)CC2)n1 [dasatinib]
Summary of the method: as §1

[2] = compound: Cc1ncc(-c2ccnc(Nc3ccc(S(C)(=O)=O)cc3)n2)n1C(C)C
Summary of the method: as §1

[3] = compound: Cn1cc(-c2ccc3c(c2)CCN3C(=O)Cc2cccc(C(F)(F)F)c2)c2c(N)ncnc21
Summary of the method: as §1

quisinostat = compound: Cn1cc(CNCC2CCN(c3ncc(C(=O)NO)cn3)CC2)c2ccccc21 [quisinostat]
Summary of the method: as §1

tipifarnib = compound: Cn1cncc1[C@@](N)(c1ccc(Cl)cc1)c1ccc2c(c1)c(-c1cccc(Cl)c1)cc(=O)n2C [tipifarnib]
Summary of the method: as §1

[4] = compound: NC(=O)Nc1cc(-c2cccc(F)c2)sc1C(=O)N[C@H]1CCCNC1
Summary of the method: as §1

[5] = compound: NC(=O)c1cnc(N[C@@H]2CCCC[C@@H]2N)nc1Nc1cccc(-n2nccn2)c1
Summary of the method: as §1

[6] = compound: NC1(c2ccc(-c3nc4ccn5c(=O)[nH]nc5c4cc3-c3ccccc3)cc2)CCC1
Summary of the method: as §1

[7] = compound: NCC(=O)Nc1ccc(-n2nc(C(F)(F)F)cc2-c2ccc3c(ccc4ccccc43)c2)cc1
Summary of the method: as §1

vorinostat = compound: O=C(CCCCCCC(=O)Nc1ccccc1)NO [vorinostat]
Summary of the method: as §1

silmitasertib = compound: O=C(O)c1ccc2c(c1)nc(Nc1cccc(Cl)c1)c1ccncc12 [silmitasertib]
Summary of the method: as §1

[8] = compound: O=C1NC(=O)C(c2cnc3ccccn23)=C1c1cn2c3c(cc(F)cc13)CN(C(=O)N1CCCCC1)CC2
Summary of the method: as §1

entospletinib = compound: c1cn2cc(-c3ccc4cn[nH]c4c3)nc(Nc3ccc(N4CCOCC4)cc3)c2n1 [entospletinib]
Summary of the method: as §1

Measured: log2 fold change

NUDT3 (UniProt O95989)
inactive: nilotinib 0.012 | [1] 0.034 | dasatinib -0.01 | [2] 0.029 | [3] -0.004 | quisinostat 0.149 | tipifarnib 0.037 | [4] -0.093 | [5] -0.006 | [6] 0.012 | [7] -0.015 | vorinostat 0.061 | silmitasertib -0.003 | [8] -0.079 | entospletinib 0.007

NSUN5 isoform 2 (UniProt Q96P11)
inactive: nilotinib 0.016 | [1] -0.009 | dasatinib -0.043 | [2] 0.022 | [3] 0.004 | quisinostat -0.008 | tipifarnib 0.023 | [4] 0.048 | [5] 0 | [6] 0.018 | [7] -0.007 | vorinostat -0.173 | silmitasertib 0.068 | [8] 0.001 | entospletinib -0.025

NNMT (UniProt P40261)
inactive: nilotinib -0.044 | [1] -0.01 | dasatinib 0.058 | [2] 0.03 | [3] 0.003 | quisinostat -0.145 | tipifarnib -0.008 | [4] 0.004 | [5] 0.035 | [6] -0.033 | [7] 0.014 | vorinostat -0.104 | silmitasertib 0.014 | [8] 0.03 | entospletinib -0.004

NOP14 (UniProt P78316)
inactive: nilotinib -0.066 | [1] 0.004 | dasatinib -0.037 | [2] 0.003 | [3] 0.011 | quisinostat 0.026 | tipifarnib 0.025 | [4] 0.058 | [5] 0.013 | [6] 0.011 | [7] 0.001 | vorinostat 0.018 | silmitasertib 0.019 | [8] 0.006 | entospletinib -0.034

NMRAL1 (UniProt Q9HBL8)
inactive: nilotinib -0.017 | [1] 0.004 | dasatinib -0.035 | [2] -0.005 | [3] -0.039 | quisinostat 0.025 | tipifarnib 0.01 | [4] -0.021 | [5] 0.012 | [6] 0.045 | [7] -0.023 | vorinostat -0.009 | silmitasertib 0.047 | [8] -0.04 | entospletinib 0.012

NUDT5 (UniProt Q9UKK9)
inactive: nilotinib 0.021 | [1] 0 | dasatinib 0.045 | [2] 0.008 | [3] -0.024 | quisinostat -0.016 | tipifarnib -0.013 | [4] -0.018 | [5] -0.013 | [6] -0.014 | [7] -0.018 | vorinostat 0.1 | silmitasertib -0.021 | [8] 0.02 | entospletinib 0.012

NRBP1 (UniProt Q9UHY1)
inactive: nilotinib 0.059 | [1] -0.034 | dasatinib 0.05 | [2] 0.019 | [3] -0.011 | quisinostat -0.007 | tipifarnib 0.041 | [4] 0.004 | [5] 0 | [6] 0.008 | [7] 0.013 | vorinostat 0.157 | silmitasertib -0.065 | [8] -0.012 | entospletinib -0.025

NOL3 isoform 3 (UniProt O60936)
inactive: nilotinib 0.193 | [1] 0.077 | dasatinib 0.041 | [2] -0.499 | [3] -0.029 | quisinostat 0 | tipifarnib 0.258 | [4] -0.068 | [5] -0.144 | [6] 0.076 | [7] 0.013 | vorinostat 0.002 | silmitasertib -0.092 | [8] -0.119

2 records picked at random from those above, as already listed:
NSUN5 isoform 2 (UniProt Q96P11)
inactive: nilotinib 0.016 | [1] -0.009 | dasatinib -0.043 | [2] 0.022 | [3] 0.004 | quisinostat -0.008 | tipifarnib 0.023 | [4] 0.048 | [5] 0 | [6] 0.018 | [7] -0.007 | vorinostat -0.173 | silmitasertib 0.068 | [8] 0.001 | entospletinib -0.025

NOL3 isoform 3 (UniProt O60936)
inactive: nilotinib 0.193 | [1] 0.077 | dasatinib 0.041 | [2] -0.499 | [3] -0.029 | quisinostat 0 | tipifarnib 0.258 | [4] -0.068 | [5] -0.144 | [6] 0.076 | [7] 0.013 | vorinostat 0.002 | silmitasertib -0.092 | [8] -0.119

Further results follow.

NOL9 (UniProt Q5SY16)
inactive: nilotinib -0.042 | [1] 0.035 | dasatinib -0.029 | [2] 0.058 | [3] 0.079 | quisinostat -0.057 | tipifarnib -0.067 | [4] 0.03 | [5] 0.03 | [6] -0.012 | [7] -0.033 | vorinostat -0.019 | silmitasertib 0.1 | [8] 0.001 | entospletinib -0.033

NT5DC1 (UniProt Q5TFE4)
inactive: nilotinib -0.006 | [1] 0.047 | dasatinib 0.021 | [2] -0.044 | [3] 0.002 | quisinostat -0.051 | tipifarnib -0.019 | [4] -0.024 | [5] 0.016 | [6] -0.002 | [7] -0.013 | vorinostat 0.031 | silmitasertib -0.017 | [8] -0.018 | entospletinib 0.047

NOP58 (UniProt Q9Y2X3)
inactive: nilotinib 0.007 | [1] 0.004 | dasatinib 0.014 | [2] -0.003 | [3] 0.036 | quisinostat -0.017 | tipifarnib 0.014 | [4] 0.003 | [5] 0.008 | [6] 0.011 | [7] -0.015 | vorinostat -0.081 | silmitasertib -0.002 | [8] 0.016 | entospletinib 0.007

NPC1 (UniProt O15118)
inactive: nilotinib -0.007 | [1] -0.005 | dasatinib 0.01 | [2] -0.003 | [3] 0.02 | quisinostat -0.077 | tipifarnib 0.002 | [4] -0.002 | [5] 0.008 | [6] -0.004 | [7] -0.028 | vorinostat 0.121 | silmitasertib -0.019 | [8] -0.01 | entospletinib -0.013

NSFL1C isoform 5 (UniProt Q9UNZ2)
inactive: nilotinib -0.003 | [1] 0.015 | dasatinib 0.043 | [2] -0.017 | [3] 0.007 | quisinostat 0.028 | tipifarnib 0.008 | [4] 0.006 | [5] -0.028 | [6] 0.017 | [7] -0.004 | vorinostat 0.158 | silmitasertib -0.034 | [8] -0.021 | entospletinib 0.028

NMNAT1 (UniProt Q9HAN9)
inactive: nilotinib 0.012 | [1] -0.048 | dasatinib -0.016 | [2] -0.002 | [3] 0.063 | quisinostat -0.028 | tipifarnib -0.018 | [4] 0.006 | [5] 0.013 | [6] -0.006 | [7] -0.055 | vorinostat 0.089 | silmitasertib 0.005 | [8] -0.026 | entospletinib -0.021

NPTN (UniProt Q9Y639)
inactive: nilotinib -0.029 | [1] 0.005 | dasatinib -0.06 | [2] -0.025 | [3] -0.009 | quisinostat -0.038 | tipifarnib 0.043 | [4] 0.031 | [5] 0.004 | [6] 0.002 | [7] 0.067 | vorinostat 0.078 | silmitasertib -0.031 | [8] 0.04 | entospletinib 0.096

NUP107 (UniProt P57740)
inactive: nilotinib 0 | [1] -0.013 | dasatinib -0.057 | [2] 0.043 | [3] 0.01 | quisinostat -0.063 | tipifarnib -0.087 | [4] 0.041 | [5] 0.01 | [6] -0.024 | [7] 0.034 | vorinostat -0.257 | silmitasertib 0.036 | [8] 0.035 | entospletinib -0.028

NOMO2 (UniProt Q5JPE7)
inactive: nilotinib 0.02 | [1] -0.014 | dasatinib -0.018 | [2] -0.005 | [3] -0.008 | quisinostat -0.017 | tipifarnib -0.043 | [4] 0.028 | [5] -0.005 | [6] -0.034 | [7] -0.011 | vorinostat 0.137 | silmitasertib 0 | [8] 0.006 | entospletinib -0.003

NTHL1 (UniProt P78549)
inactive: nilotinib -0.062 | [1] 0.031 | dasatinib 0.014 | [2] 0.174 | [3] 0.056 | quisinostat -0.006 | tipifarnib -0.033 | [4] 0.094 | [5] -0.039 | [6] -0.059 | [7] 0.082 | vorinostat 0.042 | silmitasertib -0.081 | [8] 0.032 | entospletinib 0.14

NUBP2 (UniProt Q9Y5Y2)
inactive: nilotinib 0.052 | [1] 0.025 | dasatinib -0.002 | [2] 0.023 | [3] 0.027 | quisinostat -0.047 | tipifarnib -0.001 | [4] 0.055 | [5] -0.024 | [6] -0.088 | [7] -0.006 | vorinostat -0.122 | silmitasertib 0.075 | [8] 0.024 | entospletinib -0.022

NOP56 (UniProt O00567)
inactive: nilotinib 0.017 | [1] -0.004 | dasatinib -0.007 | [2] 0.001 | [3] -0.007 | quisinostat 0.015 | tipifarnib -0.009 | [4] 0.025 | [5] 0 | [6] 0.012 | [7] -0.065 | vorinostat 0.005 | silmitasertib 0.006 | [8] -0.014 | entospletinib -0.014

NUDT1 (UniProt P36639)
inactive: nilotinib -0.034 | [1] 0.011 | dasatinib 0.034 | [2] -0.01 | [3] -0.004 | quisinostat -0.011 | tipifarnib -0.014 | [4] -0.002 | [5] -0.001 | [6] 0.014 | [7] 0.009 | vorinostat 0.06 | silmitasertib -0.069 | [8] 0.004 | entospletinib -0.037
